At least one structure is not confirmed: it was looked up by name or label, or the drawing left a doubt.
How the values were obtained:
normal CD115+ monocytes = assay: Normal monocyte assay: Treg induction in co-culture with normal monocytes; assay type: cell-based, mouse; details: monocytes:CD4 OTII TCR splenocytes 1:4, five days, FIG. 2
Source text: CD115+ MDSCs and normal CD115+ monocytes were isolated from the bone marrows of tumor-bearing and naive Balb/c mice, respectively, and were co-cultured with CD4 OTII TCR transgenic splenocytes at a ratio of 1:4 in the absence or presence of GA, SP600125, or both.
To verify whether the enhancement of suppressive activities (suppression of T-cell proliferation and Treg cell induction) by GA and SP600125 is specific to MDSCs, the Treg cell inducing activity of normal CD115+ monocytes from naive mice was analyzed in the presence of GA and SP600125.

Gr-1+CD115+ MDSCs [1] = assay: Cytokine production by IFN-γ stimulated MDSCs (ELISA); assay type: cell-based, mouse; details: IFN-γ stimulation, 24 hours, FIG. 3A
Protocol: Sorted Gr-1+CD115+ MDSCs from tumor-bearing mice were stimulated with IFN-γ in the absence or presence of GA, SP600125, or both. Twenty-four hours after stimulation, culture supernatants were collected and the concentrations of IL-10, TGF-β, IL-6, and IL-23 were determined by ELISA (R&D Systems).
It was next determined whether GA, SP600125, or both exert an effect on cytokine production by MDSCs. Sorted Gr-1+CD115+ MDSCs from tumor-bearing mice were stimulated with IFN-γ in the absence or presence of GA, SP600125, or both. Twenty-four (24) hours after stimulation, culture supernatants were collected and the concentrations of IL-10, TGF-β, IL-6, and IL-23 were determined by ELISA (R&D Systems®). GA or SP600125 alone was capable of enhancing the secretion of IL-10 and TGF-β while decreasing IL-6 and IL-23 production by MDSCs in vitro (FIG. 3A).

[2] = tested on: CD4+ HA-TCR transgenic splenocytes co-cultured with MDSCs; assay: IL-17A production by HA-stimulated splenocytes co-cultured with MDSCs (ELISA); assay type: cell-based, mouse; details: splenocytes:MDSCs 3:1, HA peptide, five days, FIG. 3B
Protocol: Because IL-23 (p40/p19) is essential for the Th17 response, the effects of MDSCs, in the presence of GA, SP600125, or both, on IL-17A expression by CD4+ HA-TCR transgenic splenocytes stimulated with HA peptides was determined. Splenocytes from CD4+ HA-TCR transgenic mice were co-cultured with irradiated MDSCs at the ratio of 3:1 in the presence of HA peptide and SP600125, GA, or a combination of both. Five days later, the culture supernatants were collected for the determination of IL-17A concentration by ELISA.

Gr-1+CD115+ MDSCs [3] = assay: MDSC differentiation assay (flow cytometry); assay type: cell-based, mouse; details: 24 hours culture, FIG. 4A
Source text: Gr-1+CD115+ MDSCs were sorted by MACS and cultured in the absence or presence of GA, SP600125, or both. Twenty-four hours later, viable cells were harvested and stained with anti-CD86, anti-CD80, anti-CD11c, anti-I-A, anti-F4/80, or isotype-matched control followed by flow cytometric analysis to assess MDSC differentiation.
To test whether differentiation of MDSCs can be inhibited or retarded by the treatment of GA, SP600125, or both, Gr-1+CD115+ MDSCs were sorted by MACS and cultured in the absence or presence of GA, SP600125, or both. Twenty-four (24) hours later, viable cells were harvested and stained with anti-CD86, anti-CD80, anti-CD11c, anti-I-A, anti-F4/80, or isotype-matched control followed by flow cytometric analysis. […] Treatment with GA or SP600125 impaired the spontaneous differentiation of MDSCs, as evidenced by the lower expressions of CD11c, MHC class II, co-stimulatory molecules, and F4/80.

Gr-1+CD115+ MDSCs [4] = assay: Prolongation of Treg cell inducing activity of pre-treated MDSCs; assay type: cell-based, mouse; details: then 5 days co-culture, FIG. 4B
Protocol: It was further investigated whether the delay of MDSC differentiation correlated with the prolongation of the Treg cell inducing activity mediated by MDSCs. Purified Gr-1+CD115+ MDSCs from tumor-bearing mice were left non-treated or treated with SP600125, GA, or a combination of both for 0, 48, and 96 hours followed by co-culture with CD4 HA TCR transgenic for an additional 5 days. […] The percentages of Treg cell subpopulations were determined by flow cytometry.
In the absence of treatment with GA or SP00125, the Treg cell inducing activity of MDSCs gradually waned over the period of 4-day culture (FIG. 4B).

DSS-induced colitis = DSS-induced colitis in vivo model; parameters: species or system C57BL/6 mice; details: scale 0-4; 3.5% DSS day 0 to 11; GA s.c., SP600125 i.p. daily; MDSCs 5×10^6 i.v. days 0 and 7; FIG. 5A
Source text: In certain aspects, the invention is related to the treatment of IBDs. Mouse models of IBD are well known in the art, and may be used to model human IBDs. For example, dextran sodium sulfate (DSS) may be administered to mice to induce IBD. In this model, mice are fed with water containing 3.5% DSS from day 0 to day 11. Following treatment, mice develop colitis. The severity of colitis is quantified (assigned a clinical score) by assessing stool consistency, bleeding, and weight loss, which ranges from 0 (healthy) to 4 (maximal severity). Histologically, DSS produces submucosal erosions, ulceration, inflammatory cell infiltration and crypt abscess as well as epithelioglandular hyperplasia. […] [Kawada et al., 2007, World J. Gastroenterol. 13: 5581-5593; Okayasu et al., 1990, Gastroenterology 98:694-702] […]
Mice were left untreated or treated with sorted MDSCs (5×10^6 cells/mouse) alone or in combination with GA and/or SP600125 (Sigma-Aldrich), on the day of disease induction. […] The severity of colitis was quantitated as a clinical score by assessing stool consistency, bleeding, and weight loss, which ranges from 0 (healthy) to 4 (maximal severity). The clinical score (weight loss, stool consistency, and bleeding) of treated mice was assessed in a double-blind fashion. […]

MDSCs = assay: Foxp3 RT-PCR of MDSC-activated T regulatory cells with MAP kinase activator or inhibitors; assay type: cell-based, mouse; details: FIG. 13B
Protocol: The expression of Foxp3 and actin (as internal control) was determined by RT-PCR in MDSC-activated T regulatory cells in the presence of p38 MAP kinase activator, anisomycin, p38 MAP kinase inhibitor, SB, and Erk inhibitor, PD (FIG. 13B).

Structure (SMILES): Oc1c2ccccc2c2c3c(cccc13)N=N2 [SP600125, 1,9-Pyrazoloanthrone]
- percentage of CD4+CD25+Foxp3+ Treg cells in the co-culture with normal monocytes (normal CD115+ monocytes): slightly increased
- IL-6 production by MDSCs (Gr-1+CD115+ MDSCs [1]): decreasing
- IL-23 production by MDSCs (Gr-1+CD115+ MDSCs [1]): decreasing
- secretion of IL-10 by MDSCs (Gr-1+CD115+ MDSCs [1]): enhancing
- secretion of TGF-β by MDSCs (Gr-1+CD115+ MDSCs [1]): enhancing
- IL-17A production [2]: decreased
- spontaneous differentiation of MDSCs (CD11c, MHC class II, co-stimulatory molecules, F4/80) (Gr-1+CD115+ MDSCs [3]): impaired
- Treg cell inducing activity of treated MDSCs on Day 2 (Gr-1+CD115+ MDSCs [4]; 48 hours pre-treatment): same Treg cell inducing activity as fresh-isolated MDSCs
- Treg cell inducing activity of treated MDSCs on day 4 (Gr-1+CD115+ MDSCs [4]; 96 hours pre-treatment): lost this activity
- IBD clinical score (DSS-induced colitis): did not significantly lower
- Treg induction by MDSCs as assessed by Foxp3 expression by RT-PCR (MDSCs): not significantly different
